PubChem BioAssay AID743121 – NCATS, 2013

Aim: 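Genes whose silencing strengthens cell killing by camptothecin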 (primary screen)
Cell system: MDA-MB-231 cells, a human breast cancer line
Reagents: single siRNA against human genes, 20 nM siRNA (0.8 pmol per well)
Timing: 120 h (drug added 48 h after transfection, read 72 h later)
Challenge: camptothecin 20 nM (about EC30) for 72 h; vehicle 0.1% DMSO in parallel plates
Measured: 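Cell viability by ATP luminescence (CellTiter-Glo) as % of non-targeting siRNA wells, and the log2 ratio of viability without drug over viability with camptothecin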
Scale: log2 vehicle/camptothecin viability: higher = stronger sensitisation to camptothecin; viability with camptothecin: higher = more viable cells
Units: viability with camptothecin in % of control
Hit rule: 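Each gene scored by redundant siRNA activity (RSA) over its individual siRNA ratios; a gene is called active at p < 0.001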
The deposit covers about 26,000 reagents; below is an unselected part. 167 of them (0.63%) count as active. 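Calls are per gene from RSA p-values that are not deposited; an individual active-marked siRNA can sensitise only weakly.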 Unmarked entries are inactive. Reagents against one gene are numbered here. Further read-outs or replicates are left out here.

GNAS #1 → log2 vehicle/camptothecin viability = -0.0229; viability with camptothecin = 69.1
GNAS #2 → log2 vehicle/camptothecin viability = 0.0705; viability with camptothecin = 91.1
GNAS #3 → log2 vehicle/camptothecin viability = 0.492; viability with camptothecin = 50.5
GNAS #4 → log2 vehicle/camptothecin viability = -0.29; viability with camptothecin = 115
XPC #1 → log2 vehicle/camptothecin viability = -0.201; viability with camptothecin = 70.6
XPC #2 → log2 vehicle/camptothecin viability = 0.0281; viability with camptothecin = 81.9
XPC #3 → log2 vehicle/camptothecin viability = -0.0236; viability with camptothecin = 124
MAST4 #1 → log2 vehicle/camptothecin viability = -0.262; viability with camptothecin = 82.3
MAST4 #2 → log2 vehicle/camptothecin viability = 0.452; viability with camptothecin = 54.9
MAST4 #3 → log2 vehicle/camptothecin viability = -0.134; viability with camptothecin = 99.7
MAST4 #4 → log2 vehicle/camptothecin viability = -0.327; viability with camptothecin = 94.4
MAST4 #5 → log2 vehicle/camptothecin viability = -0.238; viability with camptothecin = 69
MAST4 #6 → log2 vehicle/camptothecin viability = 0.011; viability with camptothecin = 84.8
MAST4 #7 → log2 vehicle/camptothecin viability = 0.137; viability with camptothecin = 76.1
MAST4 #8 → log2 vehicle/camptothecin viability = -0.38; viability with camptothecin = 58.9
GLUD1 #1 → log2 vehicle/camptothecin viability = -0.232; viability with camptothecin = 90.5
GLUD1 #2 → log2 vehicle/camptothecin viability = -0.134; viability with camptothecin = 97.5
GNG10 #1 → log2 vehicle/camptothecin viability = -0.28; viability with camptothecin = 86.6
GNG10 #2 → log2 vehicle/camptothecin viability = -0.527; viability with camptothecin = 44.4
GNG10 #3 → log2 vehicle/camptothecin viability = -0.224; viability with camptothecin = 89.2
GNG10 #4 → log2 vehicle/camptothecin viability = -0.0117; viability with camptothecin = 93.8
CTNNB1 #1 → log2 vehicle/camptothecin viability = 0.222; viability with camptothecin = 60.6
CTNNB1 #2 → log2 vehicle/camptothecin viability = -0.358; viability with camptothecin = 93.7
CTNNB1 #3 → log2 vehicle/camptothecin viability = -0.288; viability with camptothecin = 91
MPP2 #1 → log2 vehicle/camptothecin viability = -0.189; viability with camptothecin = 71.2
MPP2 #2 → log2 vehicle/camptothecin viability = -0.456; viability with camptothecin = 23.5
MPP2 #3 → log2 vehicle/camptothecin viability = -0.132; viability with camptothecin = 84.3
MPP2 #4 → log2 vehicle/camptothecin viability = -0.00628; viability with camptothecin = 109
TAS2R10 #1 → log2 vehicle/camptothecin viability = -0.334; viability with camptothecin = 117
TAS2R10 #2 → log2 vehicle/camptothecin viability = -0.196; viability with camptothecin = 81.1
TAS2R10 #3 → log2 vehicle/camptothecin viability = -0.595; viability with camptothecin = 62
TAS2R10 #4 → log2 vehicle/camptothecin viability = -0.324; viability with camptothecin = 81.2
MAPK4 #1 → log2 vehicle/camptothecin viability = -0.342; viability with camptothecin = 64.5
MAPK4 #2 → log2 vehicle/camptothecin viability = -0.398; viability with camptothecin = 79
MAPK4 #3 → log2 vehicle/camptothecin viability = -0.183; viability with camptothecin = 2.47
MAPK4 #4 → log2 vehicle/camptothecin viability = -0.339; viability with camptothecin = 81.1

Part of the list above, showing only “log2 vehicle/camptothecin viability”:
XPC #2: 0.0281
XPC #3: -0.0236
MAST4 #1: -0.262
